Reference: publication PMC8480281
Positions count from the first letter of the chain named. These are yes or no findings as the source states them, for the method shown. Binding seen in cells or lysates may run through a third protein. Some binding calls cover weakened binding; strength is not graded here. For part of these data: Where a sequence is shown, tags or fusion partners need not be part of it.

Chains of the proteins cited; added tags and fusions are not shown.
UniProt Q01196: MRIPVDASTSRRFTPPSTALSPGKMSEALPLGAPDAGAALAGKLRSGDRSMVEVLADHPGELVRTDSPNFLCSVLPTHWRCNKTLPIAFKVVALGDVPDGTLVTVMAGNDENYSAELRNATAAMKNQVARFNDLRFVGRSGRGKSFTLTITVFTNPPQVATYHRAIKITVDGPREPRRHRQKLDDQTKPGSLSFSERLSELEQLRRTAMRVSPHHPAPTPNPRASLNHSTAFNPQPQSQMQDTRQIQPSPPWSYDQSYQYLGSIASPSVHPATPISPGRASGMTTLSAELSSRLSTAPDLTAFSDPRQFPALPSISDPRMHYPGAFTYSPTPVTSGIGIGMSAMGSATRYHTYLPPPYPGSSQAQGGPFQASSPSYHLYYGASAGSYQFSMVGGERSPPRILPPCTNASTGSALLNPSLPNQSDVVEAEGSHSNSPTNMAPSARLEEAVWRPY
UniProt Q13951: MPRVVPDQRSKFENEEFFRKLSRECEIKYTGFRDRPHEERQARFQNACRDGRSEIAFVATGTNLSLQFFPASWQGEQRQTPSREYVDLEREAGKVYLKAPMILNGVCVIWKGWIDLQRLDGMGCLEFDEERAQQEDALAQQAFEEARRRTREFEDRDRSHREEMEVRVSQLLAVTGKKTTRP
UniProt P49715: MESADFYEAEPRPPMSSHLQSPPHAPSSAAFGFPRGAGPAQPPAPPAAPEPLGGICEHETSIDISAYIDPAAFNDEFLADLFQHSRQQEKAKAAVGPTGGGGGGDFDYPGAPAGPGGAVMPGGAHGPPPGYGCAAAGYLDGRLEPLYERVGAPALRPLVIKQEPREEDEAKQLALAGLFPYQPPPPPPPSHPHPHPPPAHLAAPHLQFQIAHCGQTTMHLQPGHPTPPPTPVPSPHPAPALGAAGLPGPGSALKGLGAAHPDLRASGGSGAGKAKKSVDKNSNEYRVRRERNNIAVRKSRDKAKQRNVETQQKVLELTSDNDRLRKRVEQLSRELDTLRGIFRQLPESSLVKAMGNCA
UniProt Q03347: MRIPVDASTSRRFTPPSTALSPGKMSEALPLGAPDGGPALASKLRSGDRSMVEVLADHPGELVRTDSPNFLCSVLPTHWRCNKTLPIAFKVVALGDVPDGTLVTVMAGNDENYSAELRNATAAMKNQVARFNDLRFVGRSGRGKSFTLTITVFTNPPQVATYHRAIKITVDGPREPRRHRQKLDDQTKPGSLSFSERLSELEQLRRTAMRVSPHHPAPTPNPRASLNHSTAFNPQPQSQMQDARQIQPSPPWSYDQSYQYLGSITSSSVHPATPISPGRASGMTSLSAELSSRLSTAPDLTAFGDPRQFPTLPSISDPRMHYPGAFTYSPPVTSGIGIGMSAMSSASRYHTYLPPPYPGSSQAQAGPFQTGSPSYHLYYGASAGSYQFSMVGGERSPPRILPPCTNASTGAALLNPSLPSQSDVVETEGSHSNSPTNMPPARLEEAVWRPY
UniProt Q04726: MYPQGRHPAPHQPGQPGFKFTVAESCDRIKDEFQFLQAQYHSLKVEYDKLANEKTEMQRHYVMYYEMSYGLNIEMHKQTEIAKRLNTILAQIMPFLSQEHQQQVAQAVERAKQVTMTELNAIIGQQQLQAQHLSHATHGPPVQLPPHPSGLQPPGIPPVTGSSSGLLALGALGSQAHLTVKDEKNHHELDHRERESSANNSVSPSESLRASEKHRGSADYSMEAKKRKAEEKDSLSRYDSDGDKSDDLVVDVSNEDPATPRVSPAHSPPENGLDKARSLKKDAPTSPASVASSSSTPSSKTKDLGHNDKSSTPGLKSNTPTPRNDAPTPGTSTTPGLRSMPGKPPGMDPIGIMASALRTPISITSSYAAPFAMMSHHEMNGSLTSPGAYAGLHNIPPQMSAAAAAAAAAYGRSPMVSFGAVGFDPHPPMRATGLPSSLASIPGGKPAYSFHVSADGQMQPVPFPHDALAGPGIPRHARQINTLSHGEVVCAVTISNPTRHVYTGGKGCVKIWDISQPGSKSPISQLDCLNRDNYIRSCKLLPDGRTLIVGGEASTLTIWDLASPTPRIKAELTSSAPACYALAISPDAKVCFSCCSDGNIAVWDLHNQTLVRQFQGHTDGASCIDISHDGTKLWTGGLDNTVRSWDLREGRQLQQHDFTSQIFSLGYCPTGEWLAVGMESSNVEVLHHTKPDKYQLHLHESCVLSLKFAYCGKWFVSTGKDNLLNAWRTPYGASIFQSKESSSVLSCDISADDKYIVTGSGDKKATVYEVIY

Assays:
[1] = target: T1, FOXC1 (Forkhead box C1), endogenous (human (endogenous in Fujioka and primary AML cells)) (UniProt Q12948); assay: co-IP; endogenous proteins, Fujioka cell lysate in TNN buffer (50mM Tris-Cl pH7.5, 100mM NaCl, 5mM EDTA, 0.5% Nonidet p40) with Benzonase nuclease; anti-FOXC1 or anti-RUNX1 antibody on Protein G Sepharose, 4°C overnight; western blot
T1 sequence: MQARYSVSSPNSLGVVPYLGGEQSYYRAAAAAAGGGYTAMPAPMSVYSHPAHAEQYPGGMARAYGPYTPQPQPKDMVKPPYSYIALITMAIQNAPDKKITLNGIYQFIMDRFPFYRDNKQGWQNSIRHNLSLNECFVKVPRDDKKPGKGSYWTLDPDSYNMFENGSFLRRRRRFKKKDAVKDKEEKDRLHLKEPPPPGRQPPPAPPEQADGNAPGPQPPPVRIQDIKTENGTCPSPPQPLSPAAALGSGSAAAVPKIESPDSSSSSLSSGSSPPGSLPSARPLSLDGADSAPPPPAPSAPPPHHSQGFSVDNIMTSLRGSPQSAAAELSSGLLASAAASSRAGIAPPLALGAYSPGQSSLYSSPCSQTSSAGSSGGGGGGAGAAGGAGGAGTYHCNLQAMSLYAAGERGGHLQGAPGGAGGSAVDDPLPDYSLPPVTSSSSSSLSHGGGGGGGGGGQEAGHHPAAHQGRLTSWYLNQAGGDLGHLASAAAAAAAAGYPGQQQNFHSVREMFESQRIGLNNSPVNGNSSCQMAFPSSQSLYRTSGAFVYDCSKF

[2] = target: T2, FOXC1-Myc, full length, doxycycline-inducible lentiviral expression (human) (UniProt Q12948); assay: co-IP; Fujioka cells infected with lentiviruses expressing full-length or mutant FOXC1-Myc; lysate in TNN buffer with Benzonase; endogenous RUNX1 and CEBPA; western blot
T2 sequence: T1 sequence

[3] = target: T3, FOXC1 F112S-Myc (human) (UniProt Q12948); assay: as above
T3 sequence: T1 sequence with F112S

[4] = target: T4, FOXC1 G165R-Myc (human) (UniProt Q12948); assay: as above
T4 sequence: T1 sequence with G165R

[5] = target: T5, FOXC1 in 293 cells (UniProt Q12948); assay: co-IP; 293 cells transfected with FLAG-Runx1b full-length or domain mutants; lysate in TNN buffer with Benzonase; western blot
T5 sequence: T1 sequence

[6] = target: RUNX1, endogenous (human (endogenous in Fujioka and primary AML cells)) (UniProt Q01196); assay: co-IP; endogenous proteins, Fujioka cell lysate in TNN buffer (50mM Tris-Cl pH7.5, 100mM NaCl, 5mM EDTA, 0.5% Nonidet p40) with Benzonase nuclease; anti-FOXC1 or anti-RUNX1 antibody on Protein G Sepharose, 4°C overnight; western blot

Substance | binding [1] | binding [2] | binding [3] | binding [4] | binding [5] | binding [6]
CBFB, endogenous (from UniProt Q13951 1-182) | binds | – | – | – | – | –
CEBPA, endogenous (from UniProt P49715 1-358) | binds | binds | binds | binds | – | –
FLAG-tagged murine Runx1b (proximal Runx1 isoform), full length (from UniProt Q03347 1-451) | – | – | – | – | binds | –
Groucho co-repressor family member TLE3, endogenous (from UniProt Q04726 1-772) | binds | – | – | – | – | binds
RUNX1, endogenous (from UniProt Q01196 1-453) | binds | binds | binds | binds | – | –
